Reference: article doi:10.1101/2025.10.20.683412
Results are given in words; binding and its absence hold for the method and conditions named. Binding seen in cells or lysates may run through a third protein. Some binding calls cover weakened binding; strength is not graded here. Tags and fused reporters may be left off the sequences shown.

By UniProt entry, the sequences of proteins in these tests, tags left out. Where a name states a change or a piece, a line headed by the entry shows the natural chain unless it says otherwise.
UniProt Q86WV6, whole entry: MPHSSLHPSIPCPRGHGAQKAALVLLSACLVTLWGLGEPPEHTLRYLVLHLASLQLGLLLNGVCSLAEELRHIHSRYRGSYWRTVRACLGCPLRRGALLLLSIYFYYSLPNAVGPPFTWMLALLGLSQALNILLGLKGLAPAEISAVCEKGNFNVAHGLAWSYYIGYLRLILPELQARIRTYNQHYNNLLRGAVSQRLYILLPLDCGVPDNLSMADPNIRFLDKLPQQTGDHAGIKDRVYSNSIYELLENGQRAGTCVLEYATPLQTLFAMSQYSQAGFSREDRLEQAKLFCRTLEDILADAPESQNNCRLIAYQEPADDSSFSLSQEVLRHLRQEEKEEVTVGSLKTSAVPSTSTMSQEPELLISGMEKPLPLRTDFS

Tests used:
Experiment in all cases: co-IP
[1] = biological target: HA-tagged wild-type STING (human), Q86WV6; conditions: remark: other sources report otherwise
[2] = biological target: T1, Myc-tagged IRF3 2SA mutant (S385A/S386A) (human) (UniProt Q14653)
T1 sequence: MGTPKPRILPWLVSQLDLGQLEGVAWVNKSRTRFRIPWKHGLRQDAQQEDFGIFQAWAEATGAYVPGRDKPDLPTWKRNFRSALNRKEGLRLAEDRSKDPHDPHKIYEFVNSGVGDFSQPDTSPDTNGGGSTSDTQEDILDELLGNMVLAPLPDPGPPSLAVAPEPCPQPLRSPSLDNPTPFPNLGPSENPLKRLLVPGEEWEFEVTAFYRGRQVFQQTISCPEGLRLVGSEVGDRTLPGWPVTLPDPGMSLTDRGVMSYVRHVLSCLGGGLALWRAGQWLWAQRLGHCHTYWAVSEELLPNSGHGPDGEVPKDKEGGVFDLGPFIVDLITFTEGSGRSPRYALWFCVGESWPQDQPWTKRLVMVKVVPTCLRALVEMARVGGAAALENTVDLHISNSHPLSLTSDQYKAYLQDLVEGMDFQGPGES

[3] = biological target: HA-tagged STING Y314E (human) (UniProt Q86WV6)
[4] = biological target: HA-tagged STING Y245E (human) (UniProt Q86WV6)

B1: Myc-tagged TBK1, Q9UHD2 1-729 (enzyme)
chain: MQSTSNHLWLLSDILGQGATANVFRGRHKKTGDLFAIKVFNNISFLRPVDVQMREFEVLKKLNHKNIVKLFAIEEETTTRHKVLIMEFCPCGSLYTVLEEPSNAYGLPESEFLIVLRDVVGGMNHLRENGIVHRDIKPGNIMRVIGEDGQSVYKLTDFGAARELEDDEQFVSLYGTEEYLHPDMYERAVLRKDHQKKYGATVDLWSIGVTFYHAATGSLPFRPFEGPRRNKEVMYKIITGKPSGAISGVQKAENGPIDWSGDMPVSCSLSRGLQVLLTPVLANILEADQEKCWGFDQFFAETSDILHRMVIHVFSLQQMTAHKIYIHSYNTATIFHELVYKQTKIISSNQELIYEGRRLVLEPGRLAQHFPKTTEENPIFVVSREPLNTIGLIYEKISLPKVHPRYDLDGDASMAKAITGVVCYACRIASTLLLYQELMRKGIRWLIELIKDDYNETVHKKTEVVITLDFCIRNIEKTVKVYEKLMKINLEAAELGEISDIHTKLLRLSSSQGTIETSLQDIDSRLSPGGSLADAWAHQEGTHPKDRNVEKLQVLLNCMTEIYYQFKKDKAERRLAYNEEQIHKFDKQKLYYHATKAMTHFTDECVKKYEAFLNKSEEWIRKMLHLRKQLLSLTNQCFDIEEEVSKYQEYTNELQETLPQKMFTASSGIKHTMTPIYPSSNTLVEMTLGMKKLKEEMEGVVKELAENNHILERFGSLTMDGGLRNVDCL
[1]
  binding: binds

B2: HA-tagged TBK1 (enzyme, UniProt Q9UHD2 1-729)
chain: MQSTSNHLWLLSDILGQGATANVFRGRHKKTGDLFAIKVFNNISFLRPVDVQMREFEVLKKLNHKNIVKLFAIEEETTTRHKVLIMEFCPCGSLYTVLEEPSNAYGLPESEFLIVLRDVVGGMNHLRENGIVHRDIKPGNIMRVIGEDGQSVYKLTDFGAARELEDDEQFVSLYGTEEYLHPDMYERAVLRKDHQKKYGATVDLWSIGVTFYHAATGSLPFRPFEGPRRNKEVMYKIITGKPSGAISGVQKAENGPIDWSGDMPVSCSLSRGLQVLLTPVLANILEADQEKCWGFDQFFAETSDILHRMVIHVFSLQQMTAHKIYIHSYNTATIFHELVYKQTKIISSNQELIYEGRRLVLEPGRLAQHFPKTTEENPIFVVSREPLNTIGLIYEKISLPKVHPRYDLDGDASMAKAITGVVCYACRIASTLLLYQELMRKGIRWLIELIKDDYNETVHKKTEVVITLDFCIRNIEKTVKVYEKLMKINLEAAELGEISDIHTKLLRLSSSQGTIETSLQDIDSRLSPGGSLADAWAHQEGTHPKDRNVEKLQVLLNCMTEIYYQFKKDKAERRLAYNEEQIHKFDKQKLYYHATKAMTHFTDECVKKYEAFLNKSEEWIRKMLHLRKQLLSLTNQCFDIEEEVSKYQEYTNELQETLPQKMFTASSGIKHTMTPIYPSSNTLVEMTLGMKKLKEEMEGVVKELAENNHILERFGSLTMDGGLRNVDCL
[2]
  binding: binds

B3: Myc-tagged TBK1 (enzyme, UniProt Q9UHD2 1-729)
chain: MQSTSNHLWLLSDILGQGATANVFRGRHKKTGDLFAIKVFNNISFLRPVDVQMREFEVLKKLNHKNIVKLFAIEEETTTRHKVLIMEFCPCGSLYTVLEEPSNAYGLPESEFLIVLRDVVGGMNHLRENGIVHRDIKPGNIMRVIGEDGQSVYKLTDFGAARELEDDEQFVSLYGTEEYLHPDMYERAVLRKDHQKKYGATVDLWSIGVTFYHAATGSLPFRPFEGPRRNKEVMYKIITGKPSGAISGVQKAENGPIDWSGDMPVSCSLSRGLQVLLTPVLANILEADQEKCWGFDQFFAETSDILHRMVIHVFSLQQMTAHKIYIHSYNTATIFHELVYKQTKIISSNQELIYEGRRLVLEPGRLAQHFPKTTEENPIFVVSREPLNTIGLIYEKISLPKVHPRYDLDGDASMAKAITGVVCYACRIASTLLLYQELMRKGIRWLIELIKDDYNETVHKKTEVVITLDFCIRNIEKTVKVYEKLMKINLEAAELGEISDIHTKLLRLSSSQGTIETSLQDIDSRLSPGGSLADAWAHQEGTHPKDRNVEKLQVLLNCMTEIYYQFKKDKAERRLAYNEEQIHKFDKQKLYYHATKAMTHFTDECVKKYEAFLNKSEEWIRKMLHLRKQLLSLTNQCFDIEEEVSKYQEYTNELQETLPQKMFTASSGIKHTMTPIYPSSNTLVEMTLGMKKLKEEMEGVVKELAENNHILERFGSLTMDGGLRNVDCL
[3]
  binding: binds
[4]
  binding: binds
